Assay [1] concerns the target T1, Gnp4-YFP^C (rice (Oryza sativa)) (UniProt G3XKQ9).
T1 sequence: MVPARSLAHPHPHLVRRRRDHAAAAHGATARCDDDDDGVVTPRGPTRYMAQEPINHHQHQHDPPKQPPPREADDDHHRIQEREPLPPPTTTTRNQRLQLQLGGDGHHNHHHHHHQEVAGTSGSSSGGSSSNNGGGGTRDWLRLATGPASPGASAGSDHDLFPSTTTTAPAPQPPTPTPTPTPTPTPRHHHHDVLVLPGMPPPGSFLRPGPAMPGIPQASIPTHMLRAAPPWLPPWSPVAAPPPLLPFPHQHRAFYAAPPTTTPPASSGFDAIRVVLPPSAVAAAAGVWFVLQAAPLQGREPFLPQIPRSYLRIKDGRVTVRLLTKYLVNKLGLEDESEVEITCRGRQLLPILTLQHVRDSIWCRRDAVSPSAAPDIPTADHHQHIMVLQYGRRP
Briefly: split reporter; BiFC; Gnp4-YFP^C with YFP^N fusions, transient expression in N. benthamiana leaf epidermal cells, confocal microscopy 3 d after infiltration.

Protein sequences, listed by entry. Tags and fused reporters are not part of them. Lines headed by an entry give the natural chain unless they say otherwise; changes in a name come on top.
UniProt Q5NB25: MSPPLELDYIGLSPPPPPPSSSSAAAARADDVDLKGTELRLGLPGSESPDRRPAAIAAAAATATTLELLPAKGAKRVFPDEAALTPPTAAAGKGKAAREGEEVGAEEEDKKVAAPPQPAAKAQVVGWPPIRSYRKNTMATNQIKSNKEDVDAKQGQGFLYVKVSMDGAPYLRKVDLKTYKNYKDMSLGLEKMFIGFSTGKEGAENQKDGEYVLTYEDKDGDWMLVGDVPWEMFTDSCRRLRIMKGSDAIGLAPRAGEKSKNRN
UniProt Q75GB1: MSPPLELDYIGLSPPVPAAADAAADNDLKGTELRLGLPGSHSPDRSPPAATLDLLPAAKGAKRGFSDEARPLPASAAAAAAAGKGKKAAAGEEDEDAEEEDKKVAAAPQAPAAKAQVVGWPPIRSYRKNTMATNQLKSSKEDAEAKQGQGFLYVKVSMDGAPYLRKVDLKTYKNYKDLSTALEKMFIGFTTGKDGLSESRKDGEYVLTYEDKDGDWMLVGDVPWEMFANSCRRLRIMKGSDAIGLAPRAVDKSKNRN

For assay [2], the target named is T2, HF-Gnp4 (rice (Oryza sativa)) (UniProt G3XKQ9).
T2 sequence: T1 sequence
Briefly: co-IP; HF-Gnp4 with Myc-tagged OsIAA3 or OsIAA17 in tobacco leaves; as in Zhang et al., 2017.

From article PMC6137978 come the findings set out here.

No constants are given. Whether binding was seen depends on the method and setting. In cells and extracts the contact can be indirect. Binding can be weak; no strength is given. For some of these results: Where a sequence is shown, tags or fusion partners need not be part of it.

For OsIAA3-YFP^N (from UniProt Q5NB25), the binding entry in assay [1] was “binds”. With OsIAA3-Myc (from UniProt Q5NB25), in assay [2], the binding result was “binds”. Take OsIAA17-Myc (from UniProt Q75GB1): the binding entry in assay [2] is reported as “binds”. In the case of OsIAA17-YFP^N (from UniProt Q75GB1), the binding entry in assay [1] was “binds”.
